Where a name gives a salt, the structure may show the parent alone. Some of the results follow. Hit calls seldom repeat between salt and free forms of one compound.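 In K562 cells expressing nanoluciferase-fused kinases, luminescence was recorded at 4 h intervals between 2 and 18 h, normalized as percent of control with DMSO at 100% and a positive control at 0%. A significant (2 sigma) signal drop marks a time point as decreased. The authors' rule for a hit is not shown and takes in more than the number of time points.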
Legend:
Experiment in all cases: kinase-Nluc reporter destabilization hit call (1 = scored as downregulated) (binary); higher = compound decreases kinase abundance
Settings in all cases: K562, 2-18 h
ABL1 = ABL1 (UniProt P00519)
AKT1 = AKT1 (UniProt P31749)
ALK = ALK (UniProt Q9UM73)
ARAF = ARAF (UniProt P10398)
AURKA = AURKA (UniProt O14965)
AURKB = AURKB (UniProt Q96GD4)
AURKC = AURKC (UniProt Q9UQB9)
BLK = BLK (UniProt P51451)
BMX = BMX (UniProt P51813)
BRAF = BRAF (UniProt P15056)
BRAF_V600E = test system: BRAF_V600E
BTK = BTK (UniProt Q06187)
CAMK2A = CAMK2A (UniProt Q9UQM7)
CAMK2G = CAMK2G (UniProt Q13555)
CDK10 = CDK10 (UniProt Q15131)
CDK2 = CDK2 (UniProt P24941)
CDK3 = CDK3 (UniProt Q00526)
CDK4 = CDK4 (UniProt P11802)
CDK5 = CDK5 (UniProt Q00535)
CDK6 = CDK6 (UniProt Q00534)

By UniProt entry, the sequences of proteins in these tests, tags left out. Where a name states a change or a piece, a line headed by the entry shows the natural chain unless it says otherwise.
UniProt P00519, whole entry: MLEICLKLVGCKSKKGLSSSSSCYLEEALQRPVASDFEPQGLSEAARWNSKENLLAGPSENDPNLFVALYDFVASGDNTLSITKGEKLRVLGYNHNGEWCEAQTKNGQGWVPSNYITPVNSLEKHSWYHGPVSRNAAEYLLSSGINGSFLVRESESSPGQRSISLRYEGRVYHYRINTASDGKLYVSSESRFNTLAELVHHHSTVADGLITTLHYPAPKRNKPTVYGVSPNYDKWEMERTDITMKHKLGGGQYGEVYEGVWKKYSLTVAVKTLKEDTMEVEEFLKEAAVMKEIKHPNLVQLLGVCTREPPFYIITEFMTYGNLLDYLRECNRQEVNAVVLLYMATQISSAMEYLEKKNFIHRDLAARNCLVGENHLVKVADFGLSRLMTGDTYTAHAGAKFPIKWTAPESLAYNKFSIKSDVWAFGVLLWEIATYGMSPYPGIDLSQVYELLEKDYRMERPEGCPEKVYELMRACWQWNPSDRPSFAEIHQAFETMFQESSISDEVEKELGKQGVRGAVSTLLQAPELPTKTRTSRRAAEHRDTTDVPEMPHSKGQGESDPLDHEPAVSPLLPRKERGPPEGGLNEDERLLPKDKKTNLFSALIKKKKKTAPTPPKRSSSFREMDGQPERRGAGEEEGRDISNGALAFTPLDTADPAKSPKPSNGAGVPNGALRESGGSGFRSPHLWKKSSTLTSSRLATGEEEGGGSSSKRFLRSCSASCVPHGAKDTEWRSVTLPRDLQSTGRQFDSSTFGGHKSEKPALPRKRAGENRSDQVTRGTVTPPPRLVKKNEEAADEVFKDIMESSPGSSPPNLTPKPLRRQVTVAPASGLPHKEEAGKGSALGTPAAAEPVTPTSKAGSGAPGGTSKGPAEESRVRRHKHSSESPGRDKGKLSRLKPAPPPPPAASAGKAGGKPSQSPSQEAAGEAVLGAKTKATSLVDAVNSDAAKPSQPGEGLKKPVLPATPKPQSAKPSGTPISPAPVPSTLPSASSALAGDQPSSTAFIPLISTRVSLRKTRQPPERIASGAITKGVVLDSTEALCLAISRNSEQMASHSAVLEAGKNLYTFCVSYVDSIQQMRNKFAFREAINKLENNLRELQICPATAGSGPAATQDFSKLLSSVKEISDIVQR
UniProt Q9UM73: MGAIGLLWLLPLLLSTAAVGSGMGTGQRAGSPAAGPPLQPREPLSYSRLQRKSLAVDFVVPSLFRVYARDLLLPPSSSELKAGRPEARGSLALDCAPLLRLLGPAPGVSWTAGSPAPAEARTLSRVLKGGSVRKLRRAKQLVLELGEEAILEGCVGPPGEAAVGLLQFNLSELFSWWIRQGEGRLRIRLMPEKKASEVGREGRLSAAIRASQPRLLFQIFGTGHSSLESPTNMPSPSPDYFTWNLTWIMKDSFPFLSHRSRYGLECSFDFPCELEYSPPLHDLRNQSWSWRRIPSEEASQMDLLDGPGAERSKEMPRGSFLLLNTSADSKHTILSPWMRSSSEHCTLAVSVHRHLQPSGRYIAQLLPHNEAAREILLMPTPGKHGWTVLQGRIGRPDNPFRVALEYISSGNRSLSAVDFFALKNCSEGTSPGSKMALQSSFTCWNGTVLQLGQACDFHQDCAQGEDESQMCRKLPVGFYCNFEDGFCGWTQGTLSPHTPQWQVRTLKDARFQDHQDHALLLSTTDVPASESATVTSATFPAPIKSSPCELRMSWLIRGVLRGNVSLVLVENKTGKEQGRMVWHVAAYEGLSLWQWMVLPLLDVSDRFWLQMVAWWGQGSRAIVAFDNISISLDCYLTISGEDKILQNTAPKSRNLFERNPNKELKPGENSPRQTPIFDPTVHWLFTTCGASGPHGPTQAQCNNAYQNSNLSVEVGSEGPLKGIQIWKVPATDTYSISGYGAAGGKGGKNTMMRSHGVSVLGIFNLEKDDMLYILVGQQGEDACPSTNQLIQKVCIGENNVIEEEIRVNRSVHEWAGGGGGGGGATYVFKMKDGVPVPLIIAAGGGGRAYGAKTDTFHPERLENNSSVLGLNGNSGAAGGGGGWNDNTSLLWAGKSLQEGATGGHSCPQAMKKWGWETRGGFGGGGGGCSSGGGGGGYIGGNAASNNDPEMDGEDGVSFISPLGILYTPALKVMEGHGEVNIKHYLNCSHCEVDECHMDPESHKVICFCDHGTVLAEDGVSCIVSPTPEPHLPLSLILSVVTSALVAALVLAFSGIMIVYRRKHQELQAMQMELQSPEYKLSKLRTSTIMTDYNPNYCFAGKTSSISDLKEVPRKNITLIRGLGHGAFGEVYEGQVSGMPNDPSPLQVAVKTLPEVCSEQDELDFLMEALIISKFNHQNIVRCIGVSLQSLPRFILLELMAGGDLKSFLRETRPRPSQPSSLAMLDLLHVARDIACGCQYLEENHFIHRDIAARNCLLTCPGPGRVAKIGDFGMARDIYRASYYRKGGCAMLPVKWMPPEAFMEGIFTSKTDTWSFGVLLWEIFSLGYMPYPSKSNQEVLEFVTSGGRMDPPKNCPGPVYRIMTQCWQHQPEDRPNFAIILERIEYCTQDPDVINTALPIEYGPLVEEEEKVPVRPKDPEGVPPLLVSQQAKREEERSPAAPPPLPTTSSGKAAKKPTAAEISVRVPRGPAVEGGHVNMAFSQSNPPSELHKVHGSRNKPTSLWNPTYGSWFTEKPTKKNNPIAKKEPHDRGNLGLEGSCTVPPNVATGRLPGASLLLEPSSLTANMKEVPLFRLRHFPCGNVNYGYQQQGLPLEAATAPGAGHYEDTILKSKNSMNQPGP
UniProt O14965: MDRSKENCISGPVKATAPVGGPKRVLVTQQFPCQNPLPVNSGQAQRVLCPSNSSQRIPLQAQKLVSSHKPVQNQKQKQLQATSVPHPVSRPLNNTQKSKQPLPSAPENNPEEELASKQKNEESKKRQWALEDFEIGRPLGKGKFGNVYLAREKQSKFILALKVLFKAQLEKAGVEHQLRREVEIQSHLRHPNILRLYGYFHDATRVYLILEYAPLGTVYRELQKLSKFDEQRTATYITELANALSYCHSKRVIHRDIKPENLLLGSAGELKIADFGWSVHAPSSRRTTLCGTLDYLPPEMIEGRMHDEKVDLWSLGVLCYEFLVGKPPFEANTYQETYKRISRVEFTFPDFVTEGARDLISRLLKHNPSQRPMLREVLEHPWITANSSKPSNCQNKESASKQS
UniProt Q96GD4, whole entry: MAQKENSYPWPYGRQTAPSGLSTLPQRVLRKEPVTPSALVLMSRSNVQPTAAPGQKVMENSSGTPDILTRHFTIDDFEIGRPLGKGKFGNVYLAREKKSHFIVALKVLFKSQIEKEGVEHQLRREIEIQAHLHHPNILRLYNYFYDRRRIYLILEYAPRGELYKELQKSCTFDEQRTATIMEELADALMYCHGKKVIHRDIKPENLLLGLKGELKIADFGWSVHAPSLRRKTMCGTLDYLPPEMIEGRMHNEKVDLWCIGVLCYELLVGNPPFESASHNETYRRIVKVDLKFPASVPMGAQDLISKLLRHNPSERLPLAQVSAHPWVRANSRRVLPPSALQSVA
UniProt P51813: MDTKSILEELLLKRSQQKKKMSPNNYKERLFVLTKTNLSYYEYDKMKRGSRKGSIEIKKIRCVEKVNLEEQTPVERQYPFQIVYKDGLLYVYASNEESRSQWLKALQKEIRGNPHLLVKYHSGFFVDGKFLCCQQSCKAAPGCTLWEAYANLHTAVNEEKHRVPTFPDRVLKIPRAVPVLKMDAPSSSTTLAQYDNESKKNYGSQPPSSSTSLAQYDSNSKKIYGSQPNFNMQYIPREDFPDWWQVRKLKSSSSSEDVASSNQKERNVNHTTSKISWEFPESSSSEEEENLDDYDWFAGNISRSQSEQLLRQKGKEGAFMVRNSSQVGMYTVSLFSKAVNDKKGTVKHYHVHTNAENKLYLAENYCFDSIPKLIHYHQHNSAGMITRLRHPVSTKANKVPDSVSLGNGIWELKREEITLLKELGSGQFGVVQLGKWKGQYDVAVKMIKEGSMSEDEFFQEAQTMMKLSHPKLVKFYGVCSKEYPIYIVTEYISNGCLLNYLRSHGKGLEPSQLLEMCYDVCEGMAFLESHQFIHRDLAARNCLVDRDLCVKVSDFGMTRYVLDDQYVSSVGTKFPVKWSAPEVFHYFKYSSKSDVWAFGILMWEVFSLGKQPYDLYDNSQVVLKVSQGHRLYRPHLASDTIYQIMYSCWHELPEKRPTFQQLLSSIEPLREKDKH
UniProt P15056, whole entry, looked up: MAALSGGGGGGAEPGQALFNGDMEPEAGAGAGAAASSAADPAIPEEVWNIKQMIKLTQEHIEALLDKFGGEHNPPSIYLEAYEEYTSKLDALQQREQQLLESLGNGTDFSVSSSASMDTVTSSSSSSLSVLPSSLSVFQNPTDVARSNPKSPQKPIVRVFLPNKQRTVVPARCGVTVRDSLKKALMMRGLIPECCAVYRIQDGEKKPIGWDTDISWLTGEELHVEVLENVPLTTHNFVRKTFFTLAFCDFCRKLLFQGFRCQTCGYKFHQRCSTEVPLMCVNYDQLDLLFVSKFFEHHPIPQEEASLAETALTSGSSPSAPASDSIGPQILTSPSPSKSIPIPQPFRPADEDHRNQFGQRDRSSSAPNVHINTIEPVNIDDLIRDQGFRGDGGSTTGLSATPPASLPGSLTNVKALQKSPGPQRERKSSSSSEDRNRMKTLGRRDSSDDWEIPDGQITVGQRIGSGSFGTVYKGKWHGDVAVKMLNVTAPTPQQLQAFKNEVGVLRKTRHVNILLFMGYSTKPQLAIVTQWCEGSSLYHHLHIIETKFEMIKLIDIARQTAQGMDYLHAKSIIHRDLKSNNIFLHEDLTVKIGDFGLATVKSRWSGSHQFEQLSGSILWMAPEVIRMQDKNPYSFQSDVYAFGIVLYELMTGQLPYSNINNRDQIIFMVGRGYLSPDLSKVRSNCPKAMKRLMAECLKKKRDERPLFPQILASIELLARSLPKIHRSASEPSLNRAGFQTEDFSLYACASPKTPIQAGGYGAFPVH
UniProt Q13555: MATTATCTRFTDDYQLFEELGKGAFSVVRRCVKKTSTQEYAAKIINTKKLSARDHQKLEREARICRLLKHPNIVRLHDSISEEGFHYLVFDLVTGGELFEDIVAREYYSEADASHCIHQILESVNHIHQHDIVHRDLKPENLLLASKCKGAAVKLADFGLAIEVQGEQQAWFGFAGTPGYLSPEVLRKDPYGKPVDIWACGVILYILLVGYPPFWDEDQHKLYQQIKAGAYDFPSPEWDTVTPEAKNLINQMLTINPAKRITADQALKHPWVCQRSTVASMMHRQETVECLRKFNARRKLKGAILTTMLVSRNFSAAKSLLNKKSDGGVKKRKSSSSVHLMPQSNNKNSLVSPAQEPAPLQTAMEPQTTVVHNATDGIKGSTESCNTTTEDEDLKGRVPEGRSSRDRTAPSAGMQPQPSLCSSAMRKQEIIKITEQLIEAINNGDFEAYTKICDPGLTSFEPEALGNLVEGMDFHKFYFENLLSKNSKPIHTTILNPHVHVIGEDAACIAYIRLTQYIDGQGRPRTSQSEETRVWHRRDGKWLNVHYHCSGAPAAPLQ
UniProt Q15131: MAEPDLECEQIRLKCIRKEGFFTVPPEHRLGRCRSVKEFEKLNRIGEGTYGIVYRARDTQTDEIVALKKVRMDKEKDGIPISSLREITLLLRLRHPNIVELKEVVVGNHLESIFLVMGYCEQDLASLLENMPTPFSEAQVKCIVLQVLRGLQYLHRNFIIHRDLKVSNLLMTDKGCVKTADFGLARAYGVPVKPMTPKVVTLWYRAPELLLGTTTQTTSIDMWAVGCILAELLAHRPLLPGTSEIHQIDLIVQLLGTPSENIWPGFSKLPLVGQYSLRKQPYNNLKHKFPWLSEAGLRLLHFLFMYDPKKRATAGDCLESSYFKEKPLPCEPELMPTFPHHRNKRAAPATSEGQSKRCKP
UniProt Q00526: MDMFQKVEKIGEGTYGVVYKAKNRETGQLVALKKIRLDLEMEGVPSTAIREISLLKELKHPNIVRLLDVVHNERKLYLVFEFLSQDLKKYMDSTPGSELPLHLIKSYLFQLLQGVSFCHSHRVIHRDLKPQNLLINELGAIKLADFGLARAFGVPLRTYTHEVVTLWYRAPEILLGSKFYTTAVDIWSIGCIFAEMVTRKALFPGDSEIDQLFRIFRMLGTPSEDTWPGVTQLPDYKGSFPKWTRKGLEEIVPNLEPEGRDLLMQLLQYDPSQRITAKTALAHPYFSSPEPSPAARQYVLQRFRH
UniProt Q00534, whole entry: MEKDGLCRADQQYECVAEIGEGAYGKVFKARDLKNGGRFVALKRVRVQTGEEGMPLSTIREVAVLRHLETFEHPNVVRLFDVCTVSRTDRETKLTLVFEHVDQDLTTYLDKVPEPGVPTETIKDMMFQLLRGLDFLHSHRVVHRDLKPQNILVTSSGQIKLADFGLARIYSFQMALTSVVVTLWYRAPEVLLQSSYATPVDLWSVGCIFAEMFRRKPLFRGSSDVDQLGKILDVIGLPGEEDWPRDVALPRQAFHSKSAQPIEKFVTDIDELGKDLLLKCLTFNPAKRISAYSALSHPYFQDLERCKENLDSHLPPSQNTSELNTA

Measured: kinase-Nluc reporter destabilization hit call

C#Cc1cccc(Nc2ncnc3cc4c(cc23)OCCOCCOCCO4)c1 [Icotinib (Hydrochloride)]
inactive: ABL1; 10 µM 0 | AKT1; 10 µM 0 | ALK; 10 µM 0 | ARAF; 10 µM 0 | AURKA; 10 µM 0 | AURKB; 10 µM 0 | AURKC; 10 µM 0 | BLK; 10 µM 0 | BMX; 10 µM 0 | BRAF; 10 µM 0 | BRAF_V600E; 10 µM 0 | BTK; 10 µM 0 | CAMK2A; 10 µM 0 | CAMK2G; 10 µM 0 | CDK10; 10 µM 0 | CDK2; 10 µM 0 | CDK3; 10 µM 0 | CDK4; 10 µM 0 | CDK5; 10 µM 0 | CDK6; 10 µM 0

C[C@H](Nc1cc(-c2cnn(C)c2)cc(Nc2cnccn2)n1)c1ccc(F)cc1 [Ilginatinib]
inactive: ABL1; 2.5 µM 0 | AKT1; 2.5 µM 0 | ALK; 2.5 µM 0 | ARAF; 2.5 µM 0 | AURKA; 2.5 µM 0 | AURKB; 2.5 µM 0 | AURKC; 2.5 µM 0 | BLK; 2.5 µM 0 | BMX; 2.5 µM 0 | BRAF; 2.5 µM 0 | BRAF_V600E; 2.5 µM 0 | BTK; 2.5 µM 0 | CAMK2A; 2.5 µM 0 | CAMK2G; 2.5 µM 0 | CDK10; 2.5 µM 0 | CDK2; 2.5 µM 0 | CDK3; 2.5 µM 0 | CDK4; 2.5 µM 0 | CDK5; 2.5 µM 0 | CDK6; 2.5 µM 0

C[C@H](Nc1cc(-c2cnn(C)c2)cc(Nc2cnccn2)n1)c1ccc(F)cc1 [Ilginatinib hydrochloride]
inactive: ABL1; 2.5 µM 0 | AKT1; 2.5 µM 0 | ALK; 2.5 µM 0 | ARAF; 2.5 µM 0 | AURKA; 2.5 µM 0 | AURKB; 2.5 µM 0 | AURKC; 2.5 µM 0 | BLK; 2.5 µM 0 | BMX; 2.5 µM 0 | BRAF; 2.5 µM 0 | BRAF_V600E; 2.5 µM 0 | BTK; 2.5 µM 0 | CAMK2A; 2.5 µM 0 | CAMK2G; 2.5 µM 0 | CDK10; 2.5 µM 0 | CDK2; 2.5 µM 0 | CDK3; 2.5 µM 0 | CDK4; 2.5 µM 0 | CDK5; 2.5 µM 0 | CDK6; 2.5 µM 0

Cc1cccc(-c2[nH]c(CNc3ccccc3F)nc2-c2ccc3ncnn3c2)n1 [Vactosertib]
inactive: ABL1; 2.5 µM 0 | AKT1; 2.5 µM 0 | ALK; 2.5 µM 0 | ARAF; 2.5 µM 0 | AURKA; 2.5 µM 0 | AURKB; 2.5 µM 0 | AURKC; 2.5 µM 0 | BLK; 2.5 µM 0 | BMX; 2.5 µM 0 | BRAF; 2.5 µM 0 | BRAF_V600E; 2.5 µM 0 | BTK; 2.5 µM 0 | CAMK2A; 2.5 µM 0 | CAMK2G; 2.5 µM 0 | CDK10; 2.5 µM 0 | CDK2; 2.5 µM 0 | CDK3; 2.5 µM 0 | CDK4; 2.5 µM 0 | CDK5; 2.5 µM 0 | CDK6; 2.5 µM 0

Quoted from the listing (2 entries):
C#Cc1cccc(Nc2ncnc3cc4c(cc23)OCCOCCOCCO4)c1 [Icotinib (Hydrochloride)]
inactive: ABL1; 10 µM 0 | AKT1; 10 µM 0 | ALK; 10 µM 0 | ARAF; 10 µM 0 | AURKA; 10 µM 0 | AURKB; 10 µM 0 | AURKC; 10 µM 0 | BLK; 10 µM 0 | BMX; 10 µM 0 | BRAF; 10 µM 0 | BRAF_V600E; 10 µM 0 | BTK; 10 µM 0 | CAMK2A; 10 µM 0 | CAMK2G; 10 µM 0 | CDK10; 10 µM 0 | CDK2; 10 µM 0 | CDK3; 10 µM 0 | CDK4; 10 µM 0 | CDK5; 10 µM 0 | CDK6; 10 µM 0

C[C@H](Nc1cc(-c2cnn(C)c2)cc(Nc2cnccn2)n1)c1ccc(F)cc1 [Ilginatinib]
inactive: ABL1; 2.5 µM 0 | AKT1; 2.5 µM 0 | ALK; 2.5 µM 0 | ARAF; 2.5 µM 0 | AURKA; 2.5 µM 0 | AURKB; 2.5 µM 0 | AURKC; 2.5 µM 0 | BLK; 2.5 µM 0 | BMX; 2.5 µM 0 | BRAF; 2.5 µM 0 | BRAF_V600E; 2.5 µM 0 | BTK; 2.5 µM 0 | CAMK2A; 2.5 µM 0 | CAMK2G; 2.5 µM 0 | CDK10; 2.5 µM 0 | CDK2; 2.5 µM 0 | CDK3; 2.5 µM 0 | CDK4; 2.5 µM 0 | CDK5; 2.5 µM 0 | CDK6; 2.5 µM 0

(listing goes on)

CCc1nc(C(N)=O)c(Nc2ccc(N3CCC(N4CCN(C)CC4)CC3)c(OC)c2)nc1NC1CCOCC1 [Gilteritinib]
inactive: ABL1; 2 µM 0 | AKT1; 2 µM 0 | ALK; 2 µM 0 | ARAF; 2 µM 0 | AURKA; 2 µM 0 | AURKB; 2 µM 0 | AURKC; 2 µM 0 | BLK; 2 µM 0 | BMX; 2 µM 0 | BRAF; 2 µM 0 | BRAF_V600E; 2 µM 0 | BTK; 2 µM 0 | CAMK2A; 2 µM 0 | CAMK2G; 2 µM 0 | CDK10; 2 µM 0 | CDK2; 2 µM 0 | CDK3; 2 µM 0 | CDK4; 2 µM 0 | CDK5; 2 µM 0 | CDK6; 2 µM 0

CCCC(=O)Nc1ncnc2c1ncn2[C@@H]1O[C@@H]2COP(=O)(O)O[C@H]2[C@H]1OC(=O)CCC [Bucladesine (sodium)]
inactive: ABL1; 10 µM 0 | AKT1; 10 µM 0 | ALK; 10 µM 0 | ARAF; 10 µM 0 | AURKA; 10 µM 0 | AURKB; 10 µM 0 | AURKC; 10 µM 0 | BLK; 10 µM 0 | BMX; 10 µM 0 | BRAF; 10 µM 0 | BRAF_V600E; 10 µM 0 | BTK; 10 µM 0 | CAMK2A; 10 µM 0 | CAMK2G; 10 µM 0 | CDK10; 10 µM 0 | CDK2; 10 µM 0 | CDK3; 10 µM 0 | CDK4; 10 µM 0 | CDK5; 10 µM 0 | CDK6; 10 µM 0

CNC(=O)c1ccccc1Nc1cc(Nc2ccc(N3CCOCC3)cc2OC)ncc1C(F)(F)F
inactive: ABL1; 10 µM 0 | AKT1; 10 µM 0 | ALK; 10 µM 0 | ARAF; 10 µM 0 | AURKA; 10 µM 0 | AURKB; 10 µM 0 | AURKC; 10 µM 0 | BLK; 10 µM 0 | BMX; 10 µM 0 | BRAF; 10 µM 0 | BRAF_V600E; 10 µM 0 | BTK; 10 µM 0 | CAMK2A; 10 µM 0 | CAMK2G; 10 µM 0 | CDK10; 10 µM 0 | CDK2; 10 µM 0 | CDK3; 10 µM 0 | CDK4; 10 µM 0 | CDK5; 10 µM 0 | CDK6; 10 µM 0

COc1cc(/C=C/C(=O)O)ccc1O [Ferulic acid (sodium)]
inactive: ABL1; 10 µM 0 | AKT1; 10 µM 0 | ALK; 10 µM 0 | ARAF; 10 µM 0 | AURKA; 10 µM 0 | AURKB; 10 µM 0 | AURKC; 10 µM 0 | BLK; 10 µM 0 | BMX; 10 µM 0 | BRAF; 10 µM 0 | BRAF_V600E; 10 µM 0 | BTK; 10 µM 0 | CAMK2A; 10 µM 0 | CAMK2G; 10 µM 0 | CDK10; 10 µM 0 | CDK2; 10 µM 0 | CDK3; 10 µM 0 | CDK4; 10 µM 0 | CDK5; 10 µM 0 | CDK6; 10 µM 0

Nc1cncc(-c2cn3ccnc3c(Nc3ccc(N4CCN(C5COC5)CC4)cc3)n2)n1 [Lanraplenib]
inactive: ABL1; 10 µM 0 | AKT1; 10 µM 0 | ALK; 10 µM 0 | ARAF; 10 µM 0 | AURKA; 10 µM 0 | AURKB; 10 µM 0 | AURKC; 10 µM 0 | BLK; 10 µM 0 | BMX; 10 µM 0 | BRAF; 10 µM 0 | BRAF_V600E; 10 µM 0 | BTK; 10 µM 0 | CAMK2A; 10 µM 0 | CAMK2G; 10 µM 0 | CDK10; 10 µM 0 | CDK2; 10 µM 0 | CDK3; 10 µM 0 | CDK4; 10 µM 0 | CDK5; 10 µM 0 | CDK6; 10 µM 0

Reference: the supplement of paper PMC12823440, “Inhibitors supercharge kinase turnover through native proteolytic circuits” (Nature, 2025)
